Some of the results follow.

Protein sequences, listed by entry. Tags and fused reporters are not part of them. Lines headed by an entry give the natural chain unless they say otherwise; changes in a name come on top.
UniProt P26374: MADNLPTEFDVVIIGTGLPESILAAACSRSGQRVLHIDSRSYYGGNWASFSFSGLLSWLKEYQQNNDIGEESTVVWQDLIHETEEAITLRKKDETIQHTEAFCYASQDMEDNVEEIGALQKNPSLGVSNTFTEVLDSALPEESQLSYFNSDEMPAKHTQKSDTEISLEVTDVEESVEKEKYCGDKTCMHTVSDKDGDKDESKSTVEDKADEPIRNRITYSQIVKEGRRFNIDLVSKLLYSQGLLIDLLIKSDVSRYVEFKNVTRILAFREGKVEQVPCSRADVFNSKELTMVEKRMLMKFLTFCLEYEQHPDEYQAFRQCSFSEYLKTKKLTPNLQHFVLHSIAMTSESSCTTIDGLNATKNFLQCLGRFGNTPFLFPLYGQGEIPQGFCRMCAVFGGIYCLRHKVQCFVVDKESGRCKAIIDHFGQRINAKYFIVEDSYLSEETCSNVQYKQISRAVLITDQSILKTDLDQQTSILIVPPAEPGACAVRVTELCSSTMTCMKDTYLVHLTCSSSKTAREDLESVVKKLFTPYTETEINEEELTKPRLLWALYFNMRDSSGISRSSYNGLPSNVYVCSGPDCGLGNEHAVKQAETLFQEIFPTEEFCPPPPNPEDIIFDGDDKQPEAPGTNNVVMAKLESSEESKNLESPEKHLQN
UniProt Q9UKJ5: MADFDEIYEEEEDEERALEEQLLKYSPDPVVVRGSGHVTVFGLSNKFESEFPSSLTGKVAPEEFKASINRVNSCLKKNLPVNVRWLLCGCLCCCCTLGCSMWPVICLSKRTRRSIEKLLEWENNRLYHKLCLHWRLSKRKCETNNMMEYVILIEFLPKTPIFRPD
UniProt Q8WYQ3: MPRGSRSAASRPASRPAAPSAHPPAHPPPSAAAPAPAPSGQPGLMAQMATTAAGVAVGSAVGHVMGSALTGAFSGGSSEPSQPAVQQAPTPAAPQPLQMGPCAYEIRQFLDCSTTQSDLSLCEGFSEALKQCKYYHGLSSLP
UniProt Q9BY43: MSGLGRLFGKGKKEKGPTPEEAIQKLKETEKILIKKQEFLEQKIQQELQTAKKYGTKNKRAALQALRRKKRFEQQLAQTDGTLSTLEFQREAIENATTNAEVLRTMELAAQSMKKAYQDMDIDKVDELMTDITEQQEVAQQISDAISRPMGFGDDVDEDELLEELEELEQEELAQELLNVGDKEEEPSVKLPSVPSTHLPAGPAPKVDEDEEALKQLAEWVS
UniProt O43633: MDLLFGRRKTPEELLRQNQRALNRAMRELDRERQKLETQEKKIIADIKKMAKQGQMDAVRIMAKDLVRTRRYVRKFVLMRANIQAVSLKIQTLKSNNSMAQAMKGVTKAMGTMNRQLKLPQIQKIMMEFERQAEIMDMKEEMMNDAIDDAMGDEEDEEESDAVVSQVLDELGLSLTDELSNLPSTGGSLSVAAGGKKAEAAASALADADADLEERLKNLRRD
UniProt Q99459: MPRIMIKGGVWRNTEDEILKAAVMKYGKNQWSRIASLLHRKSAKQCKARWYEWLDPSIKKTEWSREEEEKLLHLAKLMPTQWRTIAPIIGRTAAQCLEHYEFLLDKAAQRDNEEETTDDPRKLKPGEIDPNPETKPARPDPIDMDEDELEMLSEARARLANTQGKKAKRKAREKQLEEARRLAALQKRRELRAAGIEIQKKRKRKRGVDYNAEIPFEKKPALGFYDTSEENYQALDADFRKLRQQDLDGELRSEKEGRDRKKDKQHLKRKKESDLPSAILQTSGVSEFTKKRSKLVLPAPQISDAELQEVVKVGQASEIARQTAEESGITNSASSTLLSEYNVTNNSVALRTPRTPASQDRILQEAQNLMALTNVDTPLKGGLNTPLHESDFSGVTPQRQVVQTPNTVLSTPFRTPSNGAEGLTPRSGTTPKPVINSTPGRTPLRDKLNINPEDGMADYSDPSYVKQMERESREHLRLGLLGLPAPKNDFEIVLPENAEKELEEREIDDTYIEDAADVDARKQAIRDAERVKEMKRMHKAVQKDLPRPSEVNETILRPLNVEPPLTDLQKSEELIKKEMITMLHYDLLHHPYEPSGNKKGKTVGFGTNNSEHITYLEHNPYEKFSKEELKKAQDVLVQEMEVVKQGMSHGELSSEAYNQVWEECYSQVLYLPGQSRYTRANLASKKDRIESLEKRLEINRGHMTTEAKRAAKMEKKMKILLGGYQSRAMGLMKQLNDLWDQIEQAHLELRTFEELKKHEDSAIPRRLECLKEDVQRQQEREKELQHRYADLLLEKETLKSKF
UniProt Q9BV73: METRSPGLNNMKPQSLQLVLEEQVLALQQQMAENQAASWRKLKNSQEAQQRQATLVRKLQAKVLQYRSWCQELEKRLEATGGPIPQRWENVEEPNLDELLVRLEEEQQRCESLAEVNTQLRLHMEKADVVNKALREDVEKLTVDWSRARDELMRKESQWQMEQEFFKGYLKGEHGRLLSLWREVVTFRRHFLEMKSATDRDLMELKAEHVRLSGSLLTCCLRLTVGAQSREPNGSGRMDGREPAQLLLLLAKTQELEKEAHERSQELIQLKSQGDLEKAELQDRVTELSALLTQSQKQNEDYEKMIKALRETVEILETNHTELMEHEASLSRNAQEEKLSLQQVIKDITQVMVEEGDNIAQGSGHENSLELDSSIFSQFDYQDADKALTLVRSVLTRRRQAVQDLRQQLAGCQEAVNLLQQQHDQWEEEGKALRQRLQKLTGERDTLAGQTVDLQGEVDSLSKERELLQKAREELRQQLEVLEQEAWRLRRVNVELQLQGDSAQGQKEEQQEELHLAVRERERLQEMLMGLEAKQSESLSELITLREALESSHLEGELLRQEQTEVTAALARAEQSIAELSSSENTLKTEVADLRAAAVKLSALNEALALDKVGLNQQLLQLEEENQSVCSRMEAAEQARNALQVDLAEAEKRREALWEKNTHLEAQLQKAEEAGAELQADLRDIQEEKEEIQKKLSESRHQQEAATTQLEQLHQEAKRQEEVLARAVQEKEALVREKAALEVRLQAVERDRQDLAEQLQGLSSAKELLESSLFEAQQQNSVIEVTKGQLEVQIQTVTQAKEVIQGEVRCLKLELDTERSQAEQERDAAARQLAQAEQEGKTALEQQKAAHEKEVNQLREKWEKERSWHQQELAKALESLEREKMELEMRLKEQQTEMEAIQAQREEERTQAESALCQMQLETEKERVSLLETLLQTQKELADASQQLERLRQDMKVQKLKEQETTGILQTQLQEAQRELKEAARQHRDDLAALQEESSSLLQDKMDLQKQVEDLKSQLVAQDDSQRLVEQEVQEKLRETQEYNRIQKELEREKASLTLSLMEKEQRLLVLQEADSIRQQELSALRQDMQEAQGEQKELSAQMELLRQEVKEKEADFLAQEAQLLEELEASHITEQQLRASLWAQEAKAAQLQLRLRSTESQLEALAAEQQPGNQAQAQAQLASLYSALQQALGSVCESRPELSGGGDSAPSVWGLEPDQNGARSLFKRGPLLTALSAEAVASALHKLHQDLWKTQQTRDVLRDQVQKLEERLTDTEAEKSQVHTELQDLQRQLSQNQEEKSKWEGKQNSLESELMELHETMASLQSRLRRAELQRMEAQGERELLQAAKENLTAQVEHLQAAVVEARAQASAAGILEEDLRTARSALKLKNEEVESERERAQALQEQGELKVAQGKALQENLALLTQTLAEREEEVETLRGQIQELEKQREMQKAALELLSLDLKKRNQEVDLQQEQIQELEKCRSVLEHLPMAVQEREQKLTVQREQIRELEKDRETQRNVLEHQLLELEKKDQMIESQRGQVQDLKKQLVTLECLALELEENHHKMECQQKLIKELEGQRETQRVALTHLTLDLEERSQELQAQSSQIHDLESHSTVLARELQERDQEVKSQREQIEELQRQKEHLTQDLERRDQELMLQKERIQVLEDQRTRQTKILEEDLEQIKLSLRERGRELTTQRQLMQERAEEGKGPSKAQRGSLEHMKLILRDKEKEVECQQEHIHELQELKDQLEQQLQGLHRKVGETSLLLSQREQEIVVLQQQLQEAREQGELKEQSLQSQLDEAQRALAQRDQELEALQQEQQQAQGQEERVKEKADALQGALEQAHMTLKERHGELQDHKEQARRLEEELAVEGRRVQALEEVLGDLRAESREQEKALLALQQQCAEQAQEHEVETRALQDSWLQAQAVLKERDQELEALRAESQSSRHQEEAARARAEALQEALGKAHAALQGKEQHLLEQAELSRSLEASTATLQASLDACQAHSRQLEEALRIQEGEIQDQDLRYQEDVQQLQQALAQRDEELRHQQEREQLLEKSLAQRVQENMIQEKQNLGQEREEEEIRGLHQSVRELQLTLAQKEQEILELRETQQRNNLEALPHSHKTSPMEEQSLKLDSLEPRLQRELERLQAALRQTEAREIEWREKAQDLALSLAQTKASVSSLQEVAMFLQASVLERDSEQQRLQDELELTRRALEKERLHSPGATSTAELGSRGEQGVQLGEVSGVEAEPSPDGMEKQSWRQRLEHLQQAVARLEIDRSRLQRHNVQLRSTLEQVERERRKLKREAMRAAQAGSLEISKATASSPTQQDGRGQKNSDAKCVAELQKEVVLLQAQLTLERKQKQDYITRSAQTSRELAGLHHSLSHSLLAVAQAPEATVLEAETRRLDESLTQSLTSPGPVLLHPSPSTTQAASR
UniProt P42773: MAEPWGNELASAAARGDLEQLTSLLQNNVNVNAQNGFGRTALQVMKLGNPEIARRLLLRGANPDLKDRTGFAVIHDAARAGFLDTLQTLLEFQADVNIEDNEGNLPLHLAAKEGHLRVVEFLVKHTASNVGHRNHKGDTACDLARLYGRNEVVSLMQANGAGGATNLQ
UniProt P33151: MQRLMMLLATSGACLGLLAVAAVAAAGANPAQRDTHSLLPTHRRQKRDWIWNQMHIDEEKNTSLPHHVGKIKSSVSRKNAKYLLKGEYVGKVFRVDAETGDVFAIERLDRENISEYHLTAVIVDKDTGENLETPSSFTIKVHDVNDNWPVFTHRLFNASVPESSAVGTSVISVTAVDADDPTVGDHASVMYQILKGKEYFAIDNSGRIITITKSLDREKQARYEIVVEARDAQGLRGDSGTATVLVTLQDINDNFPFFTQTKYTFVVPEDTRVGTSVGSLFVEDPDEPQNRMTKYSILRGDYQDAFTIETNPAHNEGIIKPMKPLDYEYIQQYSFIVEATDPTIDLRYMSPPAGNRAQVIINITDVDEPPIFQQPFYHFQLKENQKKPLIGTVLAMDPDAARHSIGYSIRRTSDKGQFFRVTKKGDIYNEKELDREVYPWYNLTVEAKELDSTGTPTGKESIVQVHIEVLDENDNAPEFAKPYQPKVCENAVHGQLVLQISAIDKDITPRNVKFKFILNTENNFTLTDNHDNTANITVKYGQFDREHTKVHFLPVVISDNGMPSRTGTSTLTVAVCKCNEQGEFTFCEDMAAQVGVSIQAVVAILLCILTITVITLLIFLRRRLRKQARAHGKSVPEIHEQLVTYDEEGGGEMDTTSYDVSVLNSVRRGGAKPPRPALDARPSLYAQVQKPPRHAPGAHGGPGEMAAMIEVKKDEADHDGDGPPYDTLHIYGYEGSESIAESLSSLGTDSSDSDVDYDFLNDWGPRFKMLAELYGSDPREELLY
UniProt Q9UQN3, whole entry, looked up: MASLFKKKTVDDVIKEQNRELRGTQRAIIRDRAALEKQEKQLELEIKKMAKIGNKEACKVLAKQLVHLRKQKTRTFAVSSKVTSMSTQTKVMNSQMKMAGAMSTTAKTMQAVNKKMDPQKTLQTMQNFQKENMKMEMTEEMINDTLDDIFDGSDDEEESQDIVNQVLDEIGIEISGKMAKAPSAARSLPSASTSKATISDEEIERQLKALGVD
UniProt Q9HD42: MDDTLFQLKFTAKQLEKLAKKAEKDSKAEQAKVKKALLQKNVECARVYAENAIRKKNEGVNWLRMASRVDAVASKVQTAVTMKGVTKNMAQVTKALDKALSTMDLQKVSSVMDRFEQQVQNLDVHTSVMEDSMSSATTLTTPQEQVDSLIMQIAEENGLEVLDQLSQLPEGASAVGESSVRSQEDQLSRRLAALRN
UniProt O75419: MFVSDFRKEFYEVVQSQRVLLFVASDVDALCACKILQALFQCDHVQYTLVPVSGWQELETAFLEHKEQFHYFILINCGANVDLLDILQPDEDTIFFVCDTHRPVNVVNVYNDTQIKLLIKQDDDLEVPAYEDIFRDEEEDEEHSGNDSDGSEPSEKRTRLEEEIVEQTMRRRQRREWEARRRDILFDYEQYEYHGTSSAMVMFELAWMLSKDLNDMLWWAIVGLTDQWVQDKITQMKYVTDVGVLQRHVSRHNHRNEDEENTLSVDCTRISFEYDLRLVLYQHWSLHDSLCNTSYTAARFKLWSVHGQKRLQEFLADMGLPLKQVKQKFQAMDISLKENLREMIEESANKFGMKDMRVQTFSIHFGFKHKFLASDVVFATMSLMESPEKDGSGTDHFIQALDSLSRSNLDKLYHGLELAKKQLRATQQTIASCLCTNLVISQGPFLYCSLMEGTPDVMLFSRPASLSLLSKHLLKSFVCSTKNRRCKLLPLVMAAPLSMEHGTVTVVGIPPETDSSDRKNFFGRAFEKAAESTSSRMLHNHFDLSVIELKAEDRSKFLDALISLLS

Compound in the experiment: c1cn2cc(-c3ccc4cn[nH]c4c3)nc(Nc3ccc(N4CCOCC4)cc3)c2n1 [entospletinib]
Nature of the experiment: log2 fold change, soluble protein after heating vs DMSO (PISA); higher = thermal stabilisation; K562 cells, 10 uM, 30 min; active = over 0.2 and 3.5 SD of the protein, either way, in both replicates (recomputed). Summed up: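 Quantification of soluble protein used TMTpro 16plex LC-MS/MS, with channel sums equalised. Samples were the supernatant after 21,000xg for 90 min of pooled aliquots from K562 cells (2×10^6 cells/mL) treated with 10 μM compound for 30 min, heated for 3 min over 48°C-58°C, and extracted in PBS with 0.5% NP-40 at 4°C. Values, from duplicates, describe thermal stability against control samples on a log2 fold-change scale.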
CHML (UniProt P26374): the log2 fold change was inactive: -0.035.
For CHIC2 (UniProt Q9UKJ5) the value was inactive: -0.282; for CFAP20 (UniProt Q9Y6A4), inactive: 0.016.
Regarding CHCHD10 (UniProt Q8WYQ3), the log2 fold change was inactive: 0.102.
In the case of CDV3 (UniProt Q9UKY7), the log2 fold change was inactive: -0.018.
As for CHMP4A isoform 2 (UniProt Q9BY43), the log2 fold change was inactive: 0.026.
Consider CHMP2A (UniProt O43633), for which the log2 fold change is inactive: -0.068.
Consider CDC5L (UniProt Q99459), for which the log2 fold change is inactive: -0.016.
The figure for CEP250 (UniProt Q9BV73) is inactive: 0.275; for CDKN2C (UniProt P42773) it is inactive: 0.034.
The figure for CDH5 (UniProt P33151) is inactive: 0.059.
Consider CHMP2B (UniProt Q9UQN3), for which the log2 fold change is inactive: -0.022.
The figure for CEP192 (UniProt Q8TEP8) is inactive: 0.078; for CHMP3 (UniProt Q9Y3E7) it is inactive: -0.042; for CHMP1A (UniProt Q9HD42) it is inactive: 0.013.
For the target CDC45 isoform 3 (UniProt O75419), the log2 fold change was inactive: -0.19.
